Taken from: PubChem BioAssay AID1224826 (NIAID, 2016)
This is an unselected part of about 17,000 deposited reagents. About 1,110 of all reagents (6.6%) count as active. 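Active means lowered or raised reporter signal; replicate intensities are raw and not normalised per plate.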 Not all columns of the deposit are shown.

- Purpose: 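Regulators of Tlr4 signalling leading to Tnf-alpha expression in macrophages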 (primary screen)
- System: RAW264.7 G9 macrophages from mouse bearing reporters for p65 (GFP) and the Tnf promoter (mCherry)
- Reagents: siRNA pool against mouse genes, 100 nM
- Duration: 16 h of LPS stimulation, after 2 days of siRNA transfection
- Treatment: bacterial lipopolysaccharide (Salmonella minnesota R595), 10 ng/ml
- Detection: 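Nuclear mCherry signal of the Tnf promoter reporter measured by imaging after background removal, scaled to each plate median and turned into robust z-scores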
- Reading the numbers: Tnf reporter robust z-score: higher = stronger Tnf promoter reporter signal after LPS
- Hit rule: 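Called active when robust z-score is at most -1.3, matching the median of the Tlr4 knock-down control, or over 3; control wells and wells with under 50 cells never active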
- Meaning of the calls: active = Tnf reporter clearly lowered or raised; inactive = no clear change in Tnf reporter

{"target gene": "Gsdmd (GeneID 69146)", "Tnf reporter robust z-score": 0.25, "fewer than 50 cells in well": "enough cells in well", "outcome": "inactive"}
{"target gene": "Slc35a5 (GeneID 74102)", "fewer than 50 cells in well": "fewer than 50 cells per well; well left out of calls", "outcome": "inactive"}
{"target gene": "Otulinl (GeneID 223433)", "Tnf reporter robust z-score": 0.56, "fewer than 50 cells in well": "enough cells in well", "outcome": "inactive"}
{"target gene": "Ahr (GeneID 11622)", "Tnf reporter robust z-score": 0.57, "fewer than 50 cells in well": "enough cells in well", "outcome": "inactive"}
{"target gene": "Arnt (GeneID 11863)", "Tnf reporter robust z-score": -0.37, "fewer than 50 cells in well": "enough cells in well", "outcome": "inactive"}
{"target gene": "Hsfy2 (GeneID 71066)", "Tnf reporter robust z-score": -0.49, "fewer than 50 cells in well": "enough cells in well", "outcome": "inactive"}
{"target gene": "Or9s18 (GeneID 258816)", "Tnf reporter robust z-score": 1.77, "fewer than 50 cells in well": "enough cells in well", "outcome": "inactive"}
{"target gene": "Gpr61 (GeneID 229714)", "Tnf reporter robust z-score": -0.36, "fewer than 50 cells in well": "enough cells in well", "outcome": "inactive"}
{"target gene": "Srpra (GeneID 67398)", "Tnf reporter robust z-score": -0.72, "fewer than 50 cells in well": "enough cells in well", "outcome": "inactive"}
{"target gene": "Slc22a5 (GeneID 20520)", "Tnf reporter robust z-score": 0.91, "fewer than 50 cells in well": "enough cells in well", "outcome": "inactive"}
{"target gene": "Itm2c (GeneID 64294)", "Tnf reporter robust z-score": 0.46, "fewer than 50 cells in well": "enough cells in well", "outcome": "inactive"}

Laid out differently: entries from further up
{"target gene":"Srpra (GeneID 67398)","Tnf reporter robust z-score":-0.72,"fewer than 50 cells in well":"enough cells in well","outcome":"inactive"}
{"target gene":"Slc22a5 (GeneID 20520)","Tnf reporter robust z-score":0.91,"fewer than 50 cells in well":"enough cells in well","outcome":"inactive"}

The list goes on.
{"target gene": "Slc25a5 (GeneID 11740)", "Tnf reporter robust z-score": 0.38, "fewer than 50 cells in well": "enough cells in well", "outcome": "inactive"}
{"target gene": "Mef2c (GeneID 17260)", "Tnf reporter robust z-score": -1.21, "fewer than 50 cells in well": "enough cells in well", "outcome": "inactive"}
{"target gene": "Igf1 (GeneID 16000)", "Tnf reporter robust z-score": -0.88, "fewer than 50 cells in well": "enough cells in well", "outcome": "inactive"}
{"target gene": "Rlig1 (GeneID 68281)", "Tnf reporter robust z-score": 0.2, "fewer than 50 cells in well": "enough cells in well", "outcome": "inactive"}
{"target gene": "Coil (GeneID 12812)", "Tnf reporter robust z-score": -0.8, "fewer than 50 cells in well": "enough cells in well", "outcome": "inactive"}
{"target gene": "Ggt1 (GeneID 14598)", "Tnf reporter robust z-score": 0.99, "fewer than 50 cells in well": "enough cells in well", "outcome": "inactive"}
{"target gene": "Cep250 (GeneID 16328)", "Tnf reporter robust z-score": -0.99, "fewer than 50 cells in well": "enough cells in well", "outcome": "inactive"}
{"target gene": "Dync1li2 (GeneID 234663)", "Tnf reporter robust z-score": -0.81, "fewer than 50 cells in well": "enough cells in well", "outcome": "inactive"}
{"target gene": "Or2ag19 (GeneID 258589)", "Tnf reporter robust z-score": 0.26, "fewer than 50 cells in well": "enough cells in well", "outcome": "inactive"}
{"target gene": "Wscd2 (GeneID 320916)", "Tnf reporter robust z-score": -1.08, "fewer than 50 cells in well": "enough cells in well", "outcome": "inactive"}
